The values that follow are results of earlier work, collected in paper PMC3189208 (PLoS ONE, 2011).

The target of the series is MOR. The settings on record: cited from earlier work.

pKi: −log10 of the molar value.

The term pKi denotes the negative decadic logarithm of the Ki, by convention in mol/L. For `COc1cccc(C2(O)CCCCC2CN(C)C)c1` (stereo not shown) [tramadol], the pKi is 5.62.
